{"sequences": {"note": "Protein sequences, listed by entry. Tags and fused reporters are not part of them.", "UniProt P42227": "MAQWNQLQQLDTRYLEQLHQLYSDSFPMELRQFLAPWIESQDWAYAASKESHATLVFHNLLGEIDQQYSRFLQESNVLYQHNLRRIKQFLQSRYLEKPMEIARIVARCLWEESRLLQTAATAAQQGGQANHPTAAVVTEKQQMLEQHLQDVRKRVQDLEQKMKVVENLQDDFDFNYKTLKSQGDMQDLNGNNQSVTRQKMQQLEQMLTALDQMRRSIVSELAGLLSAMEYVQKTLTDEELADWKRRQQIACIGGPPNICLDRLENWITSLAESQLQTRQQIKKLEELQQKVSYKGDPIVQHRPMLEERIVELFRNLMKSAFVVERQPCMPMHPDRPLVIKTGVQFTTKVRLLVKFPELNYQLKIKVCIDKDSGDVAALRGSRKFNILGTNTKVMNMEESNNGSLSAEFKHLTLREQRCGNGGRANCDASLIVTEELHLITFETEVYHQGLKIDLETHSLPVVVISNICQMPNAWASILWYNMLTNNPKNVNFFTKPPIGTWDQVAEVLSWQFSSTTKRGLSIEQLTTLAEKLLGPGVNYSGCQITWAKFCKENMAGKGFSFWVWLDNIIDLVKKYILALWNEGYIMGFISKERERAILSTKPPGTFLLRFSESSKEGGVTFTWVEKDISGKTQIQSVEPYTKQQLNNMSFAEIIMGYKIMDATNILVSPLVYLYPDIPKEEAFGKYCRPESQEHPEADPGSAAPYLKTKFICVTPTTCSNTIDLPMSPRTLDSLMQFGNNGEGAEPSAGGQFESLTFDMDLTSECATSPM", "UniProt P45974": "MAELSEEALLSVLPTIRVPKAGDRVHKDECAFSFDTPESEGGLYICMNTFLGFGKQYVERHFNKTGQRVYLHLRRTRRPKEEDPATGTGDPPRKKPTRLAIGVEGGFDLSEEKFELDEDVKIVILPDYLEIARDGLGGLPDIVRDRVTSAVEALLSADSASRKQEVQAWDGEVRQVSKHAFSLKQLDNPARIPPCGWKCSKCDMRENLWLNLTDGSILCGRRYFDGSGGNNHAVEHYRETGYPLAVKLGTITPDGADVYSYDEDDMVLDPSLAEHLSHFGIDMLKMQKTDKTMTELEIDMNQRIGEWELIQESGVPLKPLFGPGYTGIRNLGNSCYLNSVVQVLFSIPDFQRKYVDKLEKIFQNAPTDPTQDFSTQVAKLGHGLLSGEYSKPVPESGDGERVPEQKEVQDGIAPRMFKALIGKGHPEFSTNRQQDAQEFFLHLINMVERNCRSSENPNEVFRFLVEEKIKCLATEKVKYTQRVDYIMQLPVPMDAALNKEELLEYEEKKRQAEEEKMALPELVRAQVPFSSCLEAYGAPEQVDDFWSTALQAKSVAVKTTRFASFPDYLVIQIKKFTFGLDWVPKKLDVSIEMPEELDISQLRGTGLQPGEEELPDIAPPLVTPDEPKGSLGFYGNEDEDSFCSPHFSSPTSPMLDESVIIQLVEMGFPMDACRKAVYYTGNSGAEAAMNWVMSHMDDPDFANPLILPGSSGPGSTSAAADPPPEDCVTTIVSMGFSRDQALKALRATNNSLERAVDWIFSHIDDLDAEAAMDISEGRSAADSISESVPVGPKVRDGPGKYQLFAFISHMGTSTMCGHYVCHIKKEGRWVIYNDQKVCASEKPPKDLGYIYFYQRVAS", "UniProt P56399": "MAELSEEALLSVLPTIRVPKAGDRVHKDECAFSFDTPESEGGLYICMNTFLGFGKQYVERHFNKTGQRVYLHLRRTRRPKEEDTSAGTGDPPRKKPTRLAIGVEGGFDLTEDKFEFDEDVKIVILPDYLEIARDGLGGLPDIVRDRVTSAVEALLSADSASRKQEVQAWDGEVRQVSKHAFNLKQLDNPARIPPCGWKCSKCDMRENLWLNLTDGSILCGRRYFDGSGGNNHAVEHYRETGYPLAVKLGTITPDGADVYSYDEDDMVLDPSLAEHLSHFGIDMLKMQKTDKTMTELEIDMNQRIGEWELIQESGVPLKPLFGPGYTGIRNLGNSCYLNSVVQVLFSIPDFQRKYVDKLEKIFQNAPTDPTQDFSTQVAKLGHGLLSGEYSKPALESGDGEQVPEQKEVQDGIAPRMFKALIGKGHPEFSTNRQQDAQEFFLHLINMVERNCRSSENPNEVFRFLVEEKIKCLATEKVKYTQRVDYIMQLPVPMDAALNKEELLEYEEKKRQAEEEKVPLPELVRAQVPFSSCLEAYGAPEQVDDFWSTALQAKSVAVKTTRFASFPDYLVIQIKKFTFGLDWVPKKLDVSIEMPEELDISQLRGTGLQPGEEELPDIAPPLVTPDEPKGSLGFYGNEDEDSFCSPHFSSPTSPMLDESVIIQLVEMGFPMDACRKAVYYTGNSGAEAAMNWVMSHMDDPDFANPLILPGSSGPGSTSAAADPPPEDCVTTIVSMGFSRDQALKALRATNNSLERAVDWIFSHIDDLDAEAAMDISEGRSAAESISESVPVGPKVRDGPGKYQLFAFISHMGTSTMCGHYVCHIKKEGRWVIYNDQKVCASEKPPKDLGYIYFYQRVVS"}, "source": "paper PMC12631106", "key": {"[1]": {"target": "signal transducer and activator of transcription 3 (STAT3) (human (endogenous in HCT116)) (UniProt P40763)", "experiment": "co-IP; endogenous proteins in HCT116 lysate; primary antibody and protein A + G magnetic beads overnight at 4 °C, washed thrice with cold lysis buffer, western blotting; cells with or without α-hederin treatment"}, "[2]": {"target": "signal transducer and activator of transcription 3 (STAT3), mouse colon tissue (mouse (endogenous in colon tissue of C57BL/6 mice)) (UniProt P42227)", "experiment": "co-IP; endogenous proteins in colon tissue lysates of mice of the model (AOM/DSS) and α-hederin H groups; primary antibody and protein A + G magnetic beads overnight at 4 °C, western blotting"}, "[3]": {"target": "ubiquitin specific peptidase 5 (USP5) (human (endogenous in HCT116)) (UniProt P45974)", "experiment": "co-IP; endogenous proteins in HCT116 lysate; primary antibody and protein A + G magnetic beads overnight at 4 °C, washed thrice with cold lysis buffer, western blotting; cells with or without α-hederin treatment"}, "[4]": {"target": "Sequestosome 1 (p62) (human (endogenous in HCT116)) (UniProt Q13501)", "experiment": "co-IP; endogenous proteins in HCT116 lysate; primary antibody and protein A + G magnetic beads overnight at 4 °C, washed thrice with cold lysis buffer, western blotting; cells with or without α-hederin treatment"}}, "note": "These are yes or no findings as the source states them, for the method shown. Binding seen in cells or lysates may run through a third protein. Some entries that bind do so weakly or less than the wild type.", "data": [{"substance": "Sequestosome 1 (p62) (from UniProt Q13501 1-440)", "values": [{"measurement": "binding", "setting": "[1]", "result": "binds"}]}, {"substance": "ubiquitin specific peptidase 5 (USP5), mouse colon tissue (from UniProt P56399 1-858) (enzyme)", "values": [{"measurement": "binding", "setting": "[2]", "result": "binds"}]}, {"substance": "ubiquitin specific peptidase 5 (USP5) (from UniProt P45974 1-858) (enzyme)", "values": [{"measurement": "binding", "setting": "[1]", "result": "binds"}]}, {"substance": "signal transducer and activator of transcription 3 (STAT3) (from UniProt P40763 1-770)", "values": [{"measurement": "binding", "setting": "[3]", "result": "binds"}, {"measurement": "binding", "setting": "[4]", "result": "binds"}]}]}
